The results in this text go back to publication PMC3894987.

Chains of the proteins cited; added tags and fusions are not shown.
UniProt Q53GL0: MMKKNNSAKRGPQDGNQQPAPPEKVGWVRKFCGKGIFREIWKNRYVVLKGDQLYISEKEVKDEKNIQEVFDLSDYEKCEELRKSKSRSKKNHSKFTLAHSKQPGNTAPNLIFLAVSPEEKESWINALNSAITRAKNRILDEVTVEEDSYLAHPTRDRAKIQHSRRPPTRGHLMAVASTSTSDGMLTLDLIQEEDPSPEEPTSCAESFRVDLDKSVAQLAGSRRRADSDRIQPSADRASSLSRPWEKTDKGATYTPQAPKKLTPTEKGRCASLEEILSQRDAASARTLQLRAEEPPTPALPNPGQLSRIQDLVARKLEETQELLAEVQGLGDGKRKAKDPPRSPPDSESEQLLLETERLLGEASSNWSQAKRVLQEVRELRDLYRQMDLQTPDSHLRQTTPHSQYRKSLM
UniProt Q04759: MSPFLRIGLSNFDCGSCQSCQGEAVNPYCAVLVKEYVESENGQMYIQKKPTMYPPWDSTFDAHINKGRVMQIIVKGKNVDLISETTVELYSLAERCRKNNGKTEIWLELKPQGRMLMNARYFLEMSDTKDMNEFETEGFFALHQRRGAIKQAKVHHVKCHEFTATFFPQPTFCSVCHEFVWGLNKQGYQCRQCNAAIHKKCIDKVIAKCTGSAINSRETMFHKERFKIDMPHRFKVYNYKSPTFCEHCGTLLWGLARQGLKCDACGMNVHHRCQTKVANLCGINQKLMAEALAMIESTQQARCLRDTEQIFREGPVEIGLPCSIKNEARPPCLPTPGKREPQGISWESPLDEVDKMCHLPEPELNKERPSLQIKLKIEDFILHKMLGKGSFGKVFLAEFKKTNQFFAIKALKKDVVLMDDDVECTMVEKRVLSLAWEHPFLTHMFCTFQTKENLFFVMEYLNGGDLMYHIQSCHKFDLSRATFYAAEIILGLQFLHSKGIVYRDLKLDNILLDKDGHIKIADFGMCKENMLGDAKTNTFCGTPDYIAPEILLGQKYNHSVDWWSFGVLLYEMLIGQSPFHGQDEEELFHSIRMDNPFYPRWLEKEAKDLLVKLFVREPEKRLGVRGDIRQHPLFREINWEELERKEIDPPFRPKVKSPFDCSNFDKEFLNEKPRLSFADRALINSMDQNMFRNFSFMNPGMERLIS

Assay [1] deals with casein kinase-2 interacting protein-1 (CKIP-1), untagged, expressed in HEK293T (human) (UniProt Q53GL0). Put plainly: co-IP; HEK293T co-transfected; lysis in 20 mM Tris-HCl pH 7.5, 250 mM NaCl, 1% NP-40; immunoprecipitated by anti-CKIP-1 or control antibody on Protein A beads for 6 hr; Western blot. Background: A western blot detects proteins with antibodies after separation by electrophoresis.

Assay [2] deals with T1, Myc-CARMA1 (wild type), expressed in HEK293T (UniProt Q9BXL7).
T1 sequence: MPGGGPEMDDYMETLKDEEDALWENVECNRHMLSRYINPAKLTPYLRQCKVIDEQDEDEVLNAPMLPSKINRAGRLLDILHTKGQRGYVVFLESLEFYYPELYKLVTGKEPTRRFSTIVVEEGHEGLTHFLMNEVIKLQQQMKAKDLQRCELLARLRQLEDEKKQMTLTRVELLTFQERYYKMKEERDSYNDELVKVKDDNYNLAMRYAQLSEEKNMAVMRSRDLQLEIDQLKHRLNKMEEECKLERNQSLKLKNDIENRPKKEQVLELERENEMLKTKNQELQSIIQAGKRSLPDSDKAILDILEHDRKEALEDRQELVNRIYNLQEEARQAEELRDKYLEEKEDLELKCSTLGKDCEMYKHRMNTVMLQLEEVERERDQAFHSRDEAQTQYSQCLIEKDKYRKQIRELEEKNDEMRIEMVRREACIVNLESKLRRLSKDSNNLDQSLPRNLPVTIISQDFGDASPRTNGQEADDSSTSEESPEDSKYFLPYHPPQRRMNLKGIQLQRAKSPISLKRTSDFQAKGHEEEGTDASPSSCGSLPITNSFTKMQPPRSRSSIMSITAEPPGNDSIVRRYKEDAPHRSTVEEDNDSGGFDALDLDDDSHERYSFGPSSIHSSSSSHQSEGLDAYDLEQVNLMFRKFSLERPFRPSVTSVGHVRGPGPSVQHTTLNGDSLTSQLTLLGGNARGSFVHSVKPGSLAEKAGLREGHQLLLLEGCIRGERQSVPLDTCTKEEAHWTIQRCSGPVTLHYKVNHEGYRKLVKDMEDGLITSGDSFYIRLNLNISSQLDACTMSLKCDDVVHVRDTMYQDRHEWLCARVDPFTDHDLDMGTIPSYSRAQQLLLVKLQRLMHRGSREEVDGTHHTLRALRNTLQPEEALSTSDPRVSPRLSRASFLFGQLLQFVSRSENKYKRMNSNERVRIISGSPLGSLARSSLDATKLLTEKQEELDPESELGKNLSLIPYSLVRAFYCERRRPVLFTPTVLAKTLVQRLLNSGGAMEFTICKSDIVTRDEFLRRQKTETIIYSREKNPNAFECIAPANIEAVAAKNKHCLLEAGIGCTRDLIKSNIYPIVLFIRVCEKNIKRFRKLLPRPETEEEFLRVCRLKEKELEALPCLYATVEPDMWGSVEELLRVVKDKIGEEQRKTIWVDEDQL
The experiment in a line: co-IP; HEK293T co-transfected; lysis in 20 mM Tris-HCl pH 7.5, 250 mM NaCl, 1% NP-40; immunoprecipitated by anti-Myc antibody on Protein A beads for 6 hr; Western blot; with or without co-transfected CKIP-1 or PKCθ.

In assay [3] the target is T2, FLAG-CARMA1, expressed in HEK293T (UniProt Q9BXL7).
T2 sequence: T1 sequence
The experiment in a line: co-IP; HEK293T co-transfected; lysis in 20 mM Tris-HCl pH 7.5, 250 mM NaCl, 1% NP-40; immunoprecipitated by anti-FLAG antibody on Protein A beads for 6 hr; Western blot; with CKIP-1, its truncated forms or empty vector.

Results are given in words; binding and its absence hold for the method and conditions named. Binding seen in cells or lysates may run through a third protein. Some results given as binding are weak or reduced against the parent protein; the word gives no strength. For part of these data: Where a sequence is shown, tags or fusion partners need not be part of it.

As to “PKCθ WT, expressed in HEK293T (from UniProt Q04759 1-706) (enzyme)”, the binding result in assay [1] is recorded as “no binding”; in assay [2] it was “binds”; in assay [3], “binds”.
